Source: patent US20250171534A1

How the values were obtained:
[1] = biological target: cynomolgus monkey putative LILRB2 (antigen of the Gator measurement) (cynomolgus monkey); assay: BLI (Gator), cyno RB2-his
[2] = biological target: LILRB2-ECD-His (SinoBiological, Cat #: 14132-H08H-B) (Homo sapiens (Human)); assay: competition ELISA: plate coated with SEMA4A, biotinylated LILRB2 pre-incubated with titrated antibody, streptavidin-HRP and TMB, OD450
[3] = biological target: LILRB2-ECD-His (SinoBiological, Cat #: 14132-H08H-B) (Homo sapiens (Human)); assay: competition ELISA: plate coated with ANGPTL5, biotinylated LILRB2 pre-incubated with titrated antibody, streptavidin-HRP and TMB, OD450
[4] = biological target: LILRB2-ECD-His (SinoBiological, Cat #: 14132-H08H-B) (Homo sapiens (Human)); assay: competition ELISA: plate coated with ANGPTL2, biotinylated LILRB2 pre-incubated with titrated antibody, streptavidin-HRP and TMB, OD450
[5] = biological target: LILRB2-ECD-His (SinoBiological, Cat #: 14132-H08H-B) (Homo sapiens (Human)); assay: competition ELISA: plate coated with MAG, biotinylated LILRB2 pre-incubated with titrated antibody, streptavidin-HRP and TMB, OD450
[6] = biological target: LILRB2-ECD-His (SinoBiological, Cat #: 14132-H08H-B) (Homo sapiens (Human)); assay: competition ELISA: plate coated with CD1C, biotinylated LILRB2 pre-incubated with titrated antibody, streptavidin-HRP and TMB, OD450
[7] = biological target: LILRB2-ECD-His (SinoBiological, Cat #: 14132-H08H-B) (Homo sapiens (Human)); assay: competition ELISA: plate coated with CD1D, biotinylated LILRB2 pre-incubated with titrated antibody, streptavidin-HRP and TMB, OD450

binding [1]: no binding
B1: D2M002-026 (antibody, V domains shown)
VH: QVQLQQPGAELMKPGASVKISCKATGYTFSSYWIEWVKQRPGHGLEWIGEILPGDGSTNYNAKFKGQATFTADTSSNTAYMQFSSLTSEDSAVYYCARSGAGGYDSGAFAYWGQGTLVTVSS
VL: DIVLTQSPASLAVSLGQRATISCRASESVDTYGNSFMHWYQQKPGQPPKLLVYRTSNLESGIPARFSGSGSGTDFTLTINPVEADDVATYYCQQSNEDPWTFGGGTKLEIK

binding [2]: binds | binding [1]: no binding | binding [3]: binds | binding [4]: binds | binding [5]: binds | binding [6]: binds | binding [7]: binds
B2: D2M002-126 (antibody, V domains shown)
VH: QVQLVQSGAEVKKPGASVKVSCKASGYTFTSYWIEWVRQAPGQGLEWIGEILPGDESTNYNAKFKGRVTFTTDTSTSTAYMELRSLRSDDTAVYYCARSGAGGYDSGAFAYWGQGTLVTVSS
VL: AIQLTQSPSSLSASVGDRVTITCRASESVDTYGNSFMHWYQQKPGKAPKLLVYRTSNLESGVPSRFSGSGSGTDFTLTISSLQPEDFATYYCQQSNEDPWTFGGGTKVEIK

These are yes or no findings as the source states them, for the method shown. For some assays here: A result given as binding can be weak or reduced; the word gives no strength. One block for each binder: values may come before it.
